The numbers were not newly measured in patent US10947260B2, “Phosphinolactone derivatives and pharmaceutical uses thereof” (INSTITUT NATIONAL DE LA SANTE ET DE LA RECHERCHE MEDICALE …, priority 2016, dated 2021), which cites them from elsewhere.

This data set deals with mice treated with Aβ25-35. The note with it: mouse, in vivo, ip; cited from earlier work.

On to `COc1cc2c(cc1OC)C(=O)C(CC1CCN(Cc3ccccc3)CC1)C2` (stereo not shown) [donepezil], for which the “active dose of reference molecules in this model” value is reported as 0.5 mg/kg.
